Measurements: the supplement of paper PMC11150407
In all, about 3,000 compounds went through this assay and about 45 (2%) showed an effect of 50% or more. Some of the results follow.

Tested on: MOLM1 and UCSD/AML1 (averaged)
Experiment: cell viability relative to DMSO control (POC); higher = less growth inhibition
Settings: 1 µM; 72 h
Procedure: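 Primary viability screen in the 3q26 EVI1-high AML cell lines MOLM1 and UCSD/AML1, compounds at 1 uM for 72 h. ATP CellTiter-Glo read-out given as percent viable over DMSO control (POC), averaged over duplicates. This mapping covers the TimTec NDL-3000 natural derivative library, whose compounds are identified by TimTec catalogue codes (ST...).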

**Q.** COc1ccc(S(=O)(=O)N2Cc3ccccc3CC2C(=O)Nc2ccc(C)cc2)cc1OC (configuration not stated) was tested. Which cell viability did it give?
**A.** 96.3%

**Q.** Which cell viability does the source give for Cc1cc2c(C(C)C)c(O)c(O)c(C=NCCOc3ccc(C4CCCCC4)cc3)c2c(O)c1-c1c(C)cc2c(C(C)C)c(O)c(O)c(C=NCCOc3ccc(C4CCCCC4)cc3)c2c1O here?
**A.** 98.1%

**Q.** With COc1cc(C2CC(=O)Nc3c2ccc2ccccc32)cc(OC)c1OC (configuration not stated) as the molecule, how does the cell viability read?
**A.** 50.5%

**Q.** How did the cell viability turn out when Cc1ccc(-n2c(SCc3ccccc3F)nc3c(=O)[nH]cnc32)cc1 was run?
**A.** 95.2%

**Q.** How did the cell viability turn out when N[C@H](CC1CCCCC1)C(=O)O was run?
**A.** 95%

**Q.** For COc1ccc(C2C3=C(CC(C)CC3=O)Nc3ccccc3N2C(C)=O)cc1 (configuration not stated), which cell viability is on record?
**A.** 99.7%

**Q.** How did the cell viability turn out when COc1cc(C(=O)O)ccc1O was run?
**A.** 94.3%

**Q.** For Cc1cc(=O)oc2c1ccc1occ(Nc3cccc([N+](=O)[O-])c3)c12, which cell viability is on record?
**A.** 105%

**Q.** How did the cell viability turn out when CCCc1[nH]nc2c1C(c1ccc(OC)c(O)c1)C(C#N)=C(N)O2 (configuration not stated) was run?
**A.** 100%

**Q.** Which cell viability does the source give for COC(=O)C(N)c1ccccc1 (configuration not stated) here?
**A.** 90.7%

**Q.** Cc1ccc(-n2c(SCc3nc(-c4cccs4)oc3C)nc3c(=O)[nH]cnc32)cc1 was tested. Which cell viability did it give?
**A.** 93.2%

**Q.** CCN(CC)C(=O)c1cc(=O)n(CC(=O)Nc2ccc3c(c2)OCO3)c2ccccc12 was tested. Which cell viability did it give?
**A.** 103%

**Q.** How did the cell viability turn out when COc1cc(C2C(C(=O)OC(C)C)=C(C)NC3=C2C(=O)CCC3)cc(Br)c1O (configuration not stated) was run?
**A.** 113%

**Q.** Which cell viability does the source give for COc1cc(CCC(=O)O)ccc1O here?
**A.** 98%

**Q.** How did the cell viability turn out when COC(=O)CN1C(=O)C2(C(C#N)=C(N)Oc3c2c(=O)oc2ccccc32)c2ccccc21 (configuration not stated) was run?
**A.** 102%

**Q.** How did the cell viability turn out when CCOc1ccc(C2NCCc3c2[nH]c2ccccc32)cc1 (configuration not stated) was run?
**A.** 92.7%

**Q.** How did the cell viability turn out when CCCCOc1ccc(C2=NOC(=O)/C2=C\c2ccc(OCC)cc2O)cc1 was run?
**A.** 104%

**Q.** Which cell viability does the source give for COC(=O)c1cc(OC)c(OC)c(OC)c1NS(=O)(=O)c1ccc2oc3ccccc3c2c1 here?
**A.** 102%

**Q.** For COc1cc(C2NC(C(=O)O)Cc3c2[nH]c2ccccc32)cc(OC)c1OC (configuration not stated), which cell viability is on record?
**A.** 92.2%

**Q.** COCCN1C(=O)/C(=C\c2cc(OC)c(OC)c(OC)c2)C(C(=O)OC)=C1C was tested. Which cell viability did it give?
**A.** 101%

**Q.** How did the cell viability turn out when COC(=O)C1=CN(Cc2ccccc2)C=C(C(=O)OC)C1c1cc(OC)c(OC)c(OC)c1 was run?
**A.** 92.4%

**Q.** CCOc1ccc(C(=O)NC(CC(=O)O)c2ccc(Cl)cc2)cc1OCC (configuration not stated) was tested. Which cell viability did it give?
**A.** 100%

**Q.** With CCn1c(SCc2nc(-c3ccccc3C)oc2C)nc2c(=O)[nH]cnc21 as the molecule, how does the cell viability read?
**A.** 95.1%

**Q.** For COc1ccc(CN)cc1O, which cell viability is on record?
**A.** 107%

**Q.** With Cc1cc2c(c(O)c1-c1c(C)cc3c(c1O)/C(=C/Nc1ccc(N=Nc4ccccc4)cc1)C(=O)C(O)=C3C(C)C)/C(=C/Nc1ccc(N=Nc3ccccc3)cc1)C(=O)C(O)=C2C(C)C as the molecule, how does the cell viability read?
**A.** 106%

**Q.** Which cell viability does the source give for CCn1c(SCC(=O)Nc2ccc(F)c(Cl)c2)nc2c(=O)[nH]cnc21 here?
**A.** 104%

**Q.** For Cc1ccc(C(=O)COc2cc(OCC(=O)c3ccc(C)cc3)c3c(C)cc(=O)oc3c2)cc1, which cell viability is on record?
**A.** 96.6%

**Q.** For O=C(Cn1c(=O)cc(C(=O)NCc2ccccc2)c2ccccc21)Nc1ccc(F)cc1, which cell viability is on record?
**A.** 97.9%

**Q.** Cc1c(CC(=O)NCCc2ccccc2)c(=O)oc2cc(O)ccc12 was tested. Which cell viability did it give?
**A.** 98.8%

**Q.** For O=C(CCNc1ccc(Oc2ccc(Cl)cc2)cc1)c1ccc2c(c1)OCO2, which cell viability is on record?
**A.** 96.8%

**Q.** With CCCc1cc(=O)[nH]c(SCC(=O)Nc2c(-c3ccccc3)nc3ccccn23)n1 as the molecule, how does the cell viability read?
**A.** 101%

**Q.** How did the cell viability turn out when Cc1cc2c(c(O)c1-c1c(C)cc3c(c1O)/C(=C/Nc1ccccc1O)C(=O)C(O)=C3C(C)C)/C(=C/Nc1ccccc1O)C(=O)C(O)=C2C(C)C was run?
**A.** 107%

**Q.** Which cell viability does the source give for O=C(/C=C/c1ccc(O)cc1)c1cc(O)ccc1O here?
**A.** 108%

**Q.** For O=C(NCc1ccc2c(c1)OCO2)C12CC3CC(C1)CC(n1cncn1)(C3)C2, which cell viability is on record?
**A.** 90.3%

**Q.** How did the cell viability turn out when COc1cc2ccc(=O)oc2c(OC2OC(CO)C(O)C(O)C2O)c1O (configuration not stated) was run?
**A.** 116%

**Q.** With COc1ccc(C(=O)n2nc(C)cc2C)cc1OC as the molecule, how does the cell viability read?
**A.** 89.9%

**Q.** With COC(=O)c1ccccc1NC(=O)CSc1nc2c(=O)[nH]cnc2n1-c1ccccc1 as the molecule, how does the cell viability read?
**A.** 86.4%

**Q.** For COc1ccc(/C=C2\Oc3cc(OCC(N)=O)ccc3C2=O)cc1OC, which cell viability is on record?
**A.** 95.8%

**Q.** Cc1[nH]c2ccccc2c1CCNC(=O)NC(=O)c1cccc(Cl)c1 was tested. Which cell viability did it give?
**A.** 96.5%

**Q.** With CCc1ccc(C2C(C#N)=C(N)Oc3cc(O)ccc32)cc1 (configuration not stated) as the molecule, how does the cell viability read?
**A.** 110%

**Q.** COc1cccc(NC(=O)Cn2c(=O)cc(C(=O)N3CCCC3)c3ccccc32)c1 was tested. Which cell viability did it give?
**A.** 102%

**Q.** COc1cc(OC)cc(C(=O)N2CCN(C(=O)c3ccccc3)CC2)c1 was tested. Which cell viability did it give?
**A.** 102%

**Q.** Which cell viability does the source give for Cc1cc(=O)oc2c(C)c(O)ccc12 here?
**A.** 97.2%

**Q.** For O=C(NCc1ccco1)c1cc2ccccc2oc1=O, which cell viability is on record?
**A.** 98.8%

**Q.** CCOc1ccccc1C(=O)NCN1CCc2ccccc2C1 was tested. Which cell viability did it give?
**A.** 106%

**Q.** Which cell viability does the source give for COc1cc(C(=O)NCCC2CCCC2)cc(OC)c1OC here?
**A.** 106%

**Q.** Which cell viability does the source give for O=C(Cn1c(=O)cc(C(=O)N2CCOCC2)c2ccccc21)Nc1cccc(C(F)(F)F)c1 here?
**A.** 86.9%

**Q.** For COC(=O)c1ccc(NC(=O)/C=C/c2ccc(OC)c(OC)c2)cc1, which cell viability is on record?
**A.** 94.8%

**Q.** With O=C(COc1ccc(Cl)cc1)c1ccc(O)cc1O as the molecule, how does the cell viability read?
**A.** 90.8%

**Q.** Which cell viability does the source give for O=C(O)C(Cc1ccccc1)n1cccc1 (configuration not stated) here?
**A.** 102%

**Q.** Cc1cccc(-c2nc(CSc3nc4c(=O)[nH]cnc4n3-c3ccccc3)c(C)o2)c1 was tested. Which cell viability did it give?
**A.** 99.7%

**Q.** For CC1(C(=O)O)CCC2(C)CCC3(C)C(=CC(=O)C4C5(C)CCC(OC6OC(C(=O)O)C(O)C(O)C6OC6OC(C(=O)O)C(O)C(O)C6O)CC5CCC43C)C2C1.CC1(C(=O)O)CCC2(C)CCC3(C)C(=CC(=O)C4C5(C)CCC(OC6OC(C(=O)O)C(O)C(O)C6OC6OC(C(=O)O)C(O)C(O)C6O)CC5CCC43C)C2C1.NCCCN.NCCCN.[Co] (configuration not stated), which cell viability is on record?
**A.** 94.1%
